Reference: paper PMC10986105
Results are given in words; binding and its absence hold for the method and conditions named. Binding seen in cells or lysates may run through a third protein. Some entries that bind do so weakly or less than the wild type. For part of these data: Where a sequence is shown, tags or fusion partners need not be part of it.

By UniProt entry, the sequences of proteins in these tests, tags left out.
UniProt Q7L0Q8: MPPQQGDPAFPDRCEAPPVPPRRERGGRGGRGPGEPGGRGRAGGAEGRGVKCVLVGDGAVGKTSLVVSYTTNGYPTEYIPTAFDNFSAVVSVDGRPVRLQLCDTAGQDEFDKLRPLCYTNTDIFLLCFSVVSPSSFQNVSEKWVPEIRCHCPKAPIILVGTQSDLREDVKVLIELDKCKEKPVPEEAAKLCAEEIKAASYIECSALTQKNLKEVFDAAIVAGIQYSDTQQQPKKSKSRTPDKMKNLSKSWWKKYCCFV

What was measured:
[1] = target: T1, Flag-tagging AnxA6 (annexin A6 from plasmid pTango-4*Flag-AnxA6) (UniProt P08133); test: co-IP; HepG2 cells transfected with pFlag-AnxA6 for 48 h; IP of the lysate to capture AnxA6 (antibody not named), immunoblot with RHOU antibody
T1 sequence: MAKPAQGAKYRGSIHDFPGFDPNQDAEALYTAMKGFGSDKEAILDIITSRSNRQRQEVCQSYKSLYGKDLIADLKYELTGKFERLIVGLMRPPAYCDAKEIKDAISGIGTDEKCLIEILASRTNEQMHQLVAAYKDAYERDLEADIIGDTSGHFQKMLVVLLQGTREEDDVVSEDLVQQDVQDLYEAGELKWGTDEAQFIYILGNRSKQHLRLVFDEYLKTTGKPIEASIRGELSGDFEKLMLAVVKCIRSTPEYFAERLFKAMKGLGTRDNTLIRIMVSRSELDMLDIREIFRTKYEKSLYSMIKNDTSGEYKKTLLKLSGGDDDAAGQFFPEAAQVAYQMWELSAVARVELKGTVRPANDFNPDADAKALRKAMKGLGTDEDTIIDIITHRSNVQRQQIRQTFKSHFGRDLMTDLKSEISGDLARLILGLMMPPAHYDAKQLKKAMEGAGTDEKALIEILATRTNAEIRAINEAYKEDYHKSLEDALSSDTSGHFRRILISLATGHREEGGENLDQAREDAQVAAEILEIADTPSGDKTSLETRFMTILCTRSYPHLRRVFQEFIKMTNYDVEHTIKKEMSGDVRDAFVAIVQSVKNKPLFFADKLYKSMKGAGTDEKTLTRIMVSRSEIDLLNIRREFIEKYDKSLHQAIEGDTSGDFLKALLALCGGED

[2] = target: T2, endogenous AnxA6 (annexin A6) (human (endogenous in HepG2)) (UniProt P08133); test: co-IP; lysate of untransfected HepG2 cells (also TPA-induced HepG2 cells); IP of endogenous AnxA6 with antibody on protein A beads overnight at 4 °C, normal rabbit IgG as control; immunoblot with RHOU antibody
T2 sequence: T1 sequence

[3] = target: T1, Flag-tagging AnxA6 (annexin A6 from plasmid pTango-4*Flag-AnxA6); test: co-IP; anti-Flag M2 affinity gel on lysate of transfected HepG2 cells (pFlag-AnxA6 or pFlag-AnxA6^K579R with pEGFP-RHOU, in Fig. 6C also pHis-SUMO1; for SENP1 pFlag-AnxA6 with or without pFlag-SENP1), 48 h after transfection; western blot of the precipitate

Row | binding [1] | binding [2] | binding [3] | Substance
1 | binds | binds | – | endogenous RHOU protein (29 KDa) (from UniProt Q7L0Q8 1-258)
2 | – | – | binds | EGFP-tagging RHOU (Ras homolog family member U from plasmid pEGFP-RHOU) (from UniProt Q7L0Q8 1-258)
